Data published in publication PMC4087297, “Purification and Characterization of Catalase from Marine Bacterium Acinetobacter sp. YS0810” (BioMed Research International, 2014).

System: T1, YS0810CAT
T1 construct: gene catalase; native purification from marine isolate (Qingdao coast)
Assay: H2O2 decomposition, absorbance at […] nm
Type: biochemical, Acinetobacter sp. YS0810
Conditions: 30 min preincubation in 50 mM potassium phosphate pH 7.0, 25 °C, 30 mM H2O2

Structure (SMILES) | Inhibition (r/%) (1000 µM) [%] | Inhibition (r/%) (50 µM) [%]
Nc1nc[nH]n1 [3-amino-1,2,4-triazole] | 86 | 
NO [hydroxylamine hydrochloride] |  | 78

Structures can show the parent of a compound that is named as a salt.
